Reference: PubChem BioAssay AID2685 (National Center for Advancing Translational Sciences (NCATS), 2010)
The other results are listed elsewhere or left out. The main result of the screen is listed elsewhere. These columns were measured beside it and carry no call. Compounds called inactive in the main read-out are mostly missing here. The note in brackets gives the kind of curve behind each potency; many fits are weak.

Assay: qHTS Assay for Lipid Storage Modulators in Drosophila S3 Cells;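 as to cell number change: cells counted by Cell Tracker Red CMTPX staining in the red channel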
Settings: BODIPY lipid droplet fluorescence, 18-24 h; for cell number change: measured here: cell count max response, cells fed with added oleic acid
Summary of the method: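 Drosophila S3 cells loaded with oleic acid (400 uM, as added) and compounds at several concentrations; lipid droplets imaged by 488-nm laser-scanning cytometry, 500–530 nm intensity and object ratio to cell channel. Percent activity normalized to 20 uM Triacsin C.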

[1] = measured here: lipid fluorescence (Fed channel) AC50, cells fed with added oleic acid
[2] = measured here: cell number channel AC50, cells fed with added oleic acid

SMILES | AC50 [1] | cell number change | AC50 [2]
CC(OC(=O)c1nsc(Cl)c1Cl)C(=O)NCc1cccs1 (centres undefined) | 23.1 µM [falling, partial curve, poor fit] |  | 
COc1cc(OC)c(C2=NOC(C(=O)NCc3cccs3)C2)cc1Cl (centres undefined) |  | -42.2% | 
N#Cc1c(-c2ccccc2Cl)c2c([nH]c1=O)-c1ccccc1OC2 | 1.03 µM [falling, full curve, poor fit] | 7.43% | 
COc1ccccc1/C=C1\SC(=S)N(CCC(=O)NNC(=O)c2ccccc2OC)C1=O | 29.1 µM [falling, single point] | -7.21% | 
CCN1/C(=C2/SC(=S)N(NC(C)=O)C2=O)Sc2ccc(OC)cc21 | 14.6 µM [falling, single point] | -23.7% | 
C/C(=N\NC(=S)NCCc1ccccc1)c1ccc(Cl)cc1Cl | 11.6 µM [rising, single point] | 3.33% | 
Cn1c(Cc2ccc3c(c2)OCO3)nnc1SCC(=O)N1CCc2ccccc2C1 | 2.59 µM [rising, single point] | 4.05% | 
c1ccc(-c2oc3ncnc(NCCCn4ccnc4)c3c2-c2ccccc2)cc1 | 18.4 µM [falling, partial curve] | -37.3% | 3.66 µM [falling, partial curve]
CCOC(=O)C1=C(c2ccccc2)N=C2SCC(=O)N2C1c1ccc2c(c1)OCO2 (centres undefined) |  | 13.6% | 
COc1ccc(C(=O)C2CCCN(Cc3c(C)[nH]c4ccccc34)C2)c(OC)c1 (centres undefined) | 5.8 µM [rising, partial curve, poor fit] | 12.5% | 
CCn1c(SCC(=O)NCCc2ccccc2)nnc1-c1cccs1 | 1.84 µM [rising, full curve, poor fit] | 6.44% | 
O=C(COc1ccccc1)NNc1nc2c(F)cc(F)cc2s1 |  |  | 0.517 µM [rising, single point]
CCOC(=O)Cc1nnc(NC(=O)CSc2nncn2C)s1 | 23.1 µM [falling, single point] | -24.3% | 
O=C(C1CCN(Cc2ccc(Cl)cc2)CC1)N1CCN(C(c2ccccc2)c2ccccc2)CC1 | 29.1 µM [falling, single point] | -47.7% | 32.6 µM [falling, single point]
CCOC(=O)COc1ccc(S(=O)(=O)c2ccc(OCC(=O)OCC)cc2)cc1 | 29.1 µM [falling, partial curve] | -98.2% | 29.1 µM [falling, single point]
CCc1nnc(NC(=O)CCC(=O)N2CCN(Cc3cc(Cl)ccc3OC)CC2)s1 | 0.461 µM [rising, single point] | -7.53% | 
NC(=O)c1ccc2c(c1)OCCO2 | 14.6 µM [falling, single point] | 4.01% | 
O=S(=O)(c1cnc[nH]1)N1CCN(c2ccc(Cl)cc2)CC1 | 0.517 µM [falling, full curve] |  | 5.17 µM [falling, single point]
COc1nc(OC)nc(N2CCC(NC(=O)C(Cc3cccc(OC)c3OC)NC(C)=O)CC2)n1 (centres undefined) | 3.66 µM [falling, full curve] | -4.77% | 
NC(=O)C1CCN(C2=C(NS(=O)(=O)c3ccc(Cl)cc3)C(=O)c3ccccc3C2=O)CC1 | 4.11 µM [falling, full curve] | -14.7% | 

SMILES | AC50 [1] | cell number change | AC50 [2]
CCOCCCNC(=O)c1ccc2c(c1)OCO2 | 11.6 µM [rising, partial curve] | 10.6% | 
CC1=CC(=C(C#N)c2nc3ccccc3s2)C=C(C)N1CC1CCCO1 (centres undefined) | 6.51 µM [rising, single point] | 63.6% | 2.91 µM [rising, full curve]
CC(C)c1ccc(NC(=O)Cn2ncn3c(cc4ccccc43)c2=O)cc1 | 29.1 µM [falling, single point] | -33.3% | 0.259 µM [falling, full curve]
C=CCN1C(=NC(=O)COc2ccccc2)SC2CS(=O)(=O)CC21 (centres undefined) | 16.4 µM [rising, single point] | 3.24% | 
O=C(N/N=C/c1cc(Cl)ccc1O)C(=O)Nc1ccccc1OC(F)(F)C(F)F | 29.1 µM [falling, single point] | -6.19% | 
CCCOc1ccc(C(=O)N2CCCc3ccccc32)cc1 | 0.92 µM [rising, full curve] | -4.45% | 
CSCCC(NC(=O)c1ccccc1)C(=O)NCCCn1nc(C)cc1C (centres undefined) |  | -20.1% | 
COc1ccc(CCNc2cc(C)nc3c(-c4ccccc4)c(C)nn23)cc1OC | 29.1 µM [falling, single point] | -9.55% | 
CCc1ccc(C(=O)NC(C(=O)O)C(C)C)cc1 (centres undefined) |  | 17.3% | 
Cc1c(Cl)c(-c2n[nH]c(=S)n2Cc2ccco2)nn1C |  |  | 1.03 µM [rising, full curve]
O=C(COC(=O)c1cc[n+]([O-])cc1)Nc1ccc2c(c1)OCCO2 | 2.59 µM [falling, full curve] | -19.7% | 
COc1cc2c(cc1OC)C1=NC(=O)CN1C(SCc1ccc(C)cc1)=N2 |  | -47.8% | 29.1 µM [falling, single point]
Cc1noc(/C=C/N(C)C)c1S(=O)(=O)N1CCCC(C(=O)N2CCCCC2)C1 (centres undefined) | 20.6 µM [falling, partial curve] | 0.474% | 
N#CCCn1cc(C(=O)Nc2ccc(C(=O)O)cc2)c(-c2cc3ccccc3o2)n1 | 0.58 µM [falling, single point] | -20.4% | 
COc1cc(OC)cc(C(=O)OC(C)C(=O)NC2CCCc3ccccc32)c1 (centres undefined) | 0.184 µM [rising, full curve, poor fit] | -30.7% | 29.1 µM [falling, single point]
CCOC(=O)N1CCC(NC(=O)c2cc(C(=O)Nc3cccc(C(F)(F)F)c3)ccc2CO)CC1 | 0.0092 µM [rising, full curve, poor fit] | 22.8% | 0.00461 µM [rising, full curve, poor fit]
COC(=O)CC1Oc2ccc(C)cc2NC1=O (centres undefined) | 20.6 µM [falling, single point] | -25.5% | 
Cc1ccc(-c2nc3ccc([N+](=O)[O-])cc3[nH]2)cc1 | 0.164 µM [rising, full curve, poor fit] | -12.3% | 
O=[N+]([O-])c1cc([N+](=O)[O-])c2oc(-c3ccccc3)c(Br)c2c1O |  | -12.5% | 
COc1ccc(/C(N)=C/C(=O)C(C)(C)C)cc1 |  | -27% | 

SMILES | AC50 [1] | cell number change | AC50 [2]
CCOC(=O)Nc1cc(C(=O)OC)cc(C(=O)OC)c1 | 1.84 µM [rising, full curve] | 11.2% | 
O=C1CCCc2nc3c(cc21)C(O)Oc1c-3ccc2ccccc12 (centres undefined) | 3.66 µM [falling, single point] | -50.8% | 0.731 µM [falling, full curve]
CCOc1nc(C)cc(C)c1S(=O)(=O)c1cccc(Cl)c1 | 6.51 µM [falling, single point] | -6.34% | 
CCOC(=O)C(CC)Sc1nc2c(cnn2-c2ccccc2)c(=O)[nH]1 (centres undefined) | 0.58 µM [rising, full curve] | 34.5% | 1.46 µM [rising, full curve]
CN(C)CC(=O)c1c(N)n(Cc2ccccc2)c(=O)n(C)c1=O |  | -0.683% | 
CCCCCCc1cc2cc(/C(N)=N/NC(=O)c3ccncc3)c(=O)oc2cc1O |  | -4.75% | 
Cc1ccc(OC(=O)Cn2c(C(F)(F)F)nc3ccccc32)cc1 |  | -16.8% | 0.00461 µM [falling, full curve, poor fit]
CCOc1ccccc1NC(=O)CSc1nnc(C2CC2)n1CC | 0.517 µM [rising, single point] | 0.833% | 
CCOc1ccc(C2=C(C=C(C#N)C#N)C(c3ccccc3)c3ccccc3O2)cc1 (centres undefined) | 4.11 µM [rising, full curve] | 3.31% | 
CCOc1ccc(CC(=O)Nc2ccc(S(=O)(=O)Nc3cc(C)on3)cc2)cc1OCC |  | -22.4% | 
Cc1ccc(C)c(Cn2c3ccccc3c3cnn(CC(=O)NCCCN4CCOCC4)c(=O)c32)c1 | 6.51 µM [rising, single point] | -0.708% | 
CCOC(=O)c1c(C)[nH]c(C(=O)OC(C)C(=O)Nc2ccccc2OC)c1C (centres undefined) | 0.58 µM [rising, single point] | 46% | 29.1 µM [rising, single point]
CCOc1cc(C(=O)Nc2ccc(S(=O)(=O)NC3=NCCCCC3)cc2)cc(Br)c1OC | 0.731 µM [rising, full curve] | -5.05% | 
CCCC(CCC)c1nnc(NC(=O)c2ccco2)s1 | 23.1 µM [falling, single point] | -3.38% | 
O=C(Cc1ccccc1)Nc1ccc2oc(-c3cccnc3)nc2c1 | 0.206 µM [rising, full curve] |  | 0.231 µM [rising, full curve]
CCCCOc1ccc(C(=O)NCCCC(=O)N2CCCCC2)cc1 | 18.4 µM [falling, partial curve] | -46.9% | 18.4 µM [falling, single point]
Cc1ccc2nc(NCc3ccco3)c(C=NCc3ccco3)c(=O)n2c1 |  | -23.2% | 
C=CCNC(=O)COC(=O)c1ccc(C)c(NC(=O)c2ccco2)c1 | 29.1 µM [rising, partial curve, poor fit] | 19.2% | 
Fc1ccc(-c2nnc(Cc3ccc(Cl)cc3)o2)cc1 | 9.2 µM [rising, partial curve] | 15.6% | 0.00461 µM [rising, full curve, poor fit]
CCCCNC(=O)NNC(=O)COc1cccc(C)c1C |  | -22.5% | 0.00517 µM [falling, full curve, poor fit]

Entries of single compounds, looked up by structure:
CCCC(CCC)c1nnc(NC(=O)c2ccco2)s1 in the list: AC50 [1]: 23.1 µM [falling, single point]; cell number change: -3.38%
Fc1ccc(-c2nnc(Cc3ccc(Cl)cc3)o2)cc1 in the list: AC50 [1]: 9.2 µM [rising, partial curve]; cell number change: 15.6%; AC50 [2]: 0.00461 µM [rising, full curve, poor fit]
CCOc1cc(C(=O)Nc2ccc(S(=O)(=O)NC3=NCCCCC3)cc2)cc(Br)c1OC in the list: AC50 [1]: 0.731 µM [rising, full curve]; cell number change: -5.05%
Cc1ccc(C)c(Cn2c3ccccc3c3cnn(CC(=O)NCCCN4CCOCC4)c(=O)c32)c1 in the list: AC50 [1]: 6.51 µM [rising, single point]; cell number change: -0.708%
